The values below come from article PMC9979339 (ACS Omega, 2023).

By UniProt entry, the sequences of proteins in these tests, tags left out. Residues count along the entry.
UniProt Q03311, 30-603: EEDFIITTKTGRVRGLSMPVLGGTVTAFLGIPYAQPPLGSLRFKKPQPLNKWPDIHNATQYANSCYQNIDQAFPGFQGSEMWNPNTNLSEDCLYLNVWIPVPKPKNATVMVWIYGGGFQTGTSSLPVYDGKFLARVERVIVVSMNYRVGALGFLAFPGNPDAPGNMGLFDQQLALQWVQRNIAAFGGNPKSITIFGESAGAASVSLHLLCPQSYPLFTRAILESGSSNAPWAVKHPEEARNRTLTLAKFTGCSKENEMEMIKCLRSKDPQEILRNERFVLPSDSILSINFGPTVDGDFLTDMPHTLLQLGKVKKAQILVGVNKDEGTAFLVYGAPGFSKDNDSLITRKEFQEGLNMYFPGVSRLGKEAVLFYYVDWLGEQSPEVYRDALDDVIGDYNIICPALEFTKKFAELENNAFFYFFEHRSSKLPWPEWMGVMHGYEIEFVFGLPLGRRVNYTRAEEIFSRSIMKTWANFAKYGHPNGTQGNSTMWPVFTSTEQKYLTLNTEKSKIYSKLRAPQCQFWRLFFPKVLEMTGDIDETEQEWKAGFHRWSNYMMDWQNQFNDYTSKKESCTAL

Marks after values point to notes of the source that are not given here.

The target of the test is BuChE in the brain (Mus musculus, UniProt Q03311). In words: Ex vivo BuChE activity in brain homogenate after NORT. The conditions noted are these: donepezil 2 mg/kg plus scopolamine, control = 100, n = 3. More on the design: species or system mice.

As for `COc1cc2c(cc1OC)C(=O)C(CC1CCN(Cc3ccccc3)CC1)C2` (stereo not shown) [donepezil, reference compound], the “BuChE inhibition (%) in the brain” value is reported as 55 ± 4.2 ^d %.
